According to patent US20110300071A1 (Washington University, priority 2010, published 2011):

Assay: peptide synthesis
Conditions: conjugation step

For “poly(ethylene glycol) CANF methacrylate (CANF-PEGMA)”, which conjugation yield is on record?
Its conjugation yield is 41%.
